Measurements reported in article PMC12263440.
No constants are given. Whether binding was seen depends on the method and setting. Some entries that bind do so weakly or less than the wild type.

Chains of the proteins cited; added tags and fusions are not shown. Lines headed by an entry give the natural chain unless they say otherwise; changes in a name come on top.
UniProt Q15910: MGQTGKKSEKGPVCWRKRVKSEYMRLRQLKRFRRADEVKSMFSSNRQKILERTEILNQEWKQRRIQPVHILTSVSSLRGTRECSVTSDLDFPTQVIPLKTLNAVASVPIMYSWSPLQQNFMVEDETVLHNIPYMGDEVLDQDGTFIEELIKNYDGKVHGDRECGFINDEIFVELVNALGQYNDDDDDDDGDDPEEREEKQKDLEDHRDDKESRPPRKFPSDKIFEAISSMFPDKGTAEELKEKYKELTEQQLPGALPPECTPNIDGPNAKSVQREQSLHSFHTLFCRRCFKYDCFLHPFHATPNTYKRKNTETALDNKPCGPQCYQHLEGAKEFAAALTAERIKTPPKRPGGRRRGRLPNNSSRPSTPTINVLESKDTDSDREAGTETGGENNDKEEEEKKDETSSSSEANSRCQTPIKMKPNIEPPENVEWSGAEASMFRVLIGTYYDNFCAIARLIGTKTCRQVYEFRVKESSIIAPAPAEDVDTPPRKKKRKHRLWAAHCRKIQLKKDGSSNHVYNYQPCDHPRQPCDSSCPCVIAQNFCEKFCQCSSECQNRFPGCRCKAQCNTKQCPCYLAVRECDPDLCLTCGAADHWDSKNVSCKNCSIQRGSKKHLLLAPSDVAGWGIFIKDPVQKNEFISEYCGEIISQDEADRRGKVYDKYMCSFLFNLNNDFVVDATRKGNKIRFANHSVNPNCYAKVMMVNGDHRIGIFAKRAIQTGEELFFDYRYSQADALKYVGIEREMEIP
UniProt Q15022: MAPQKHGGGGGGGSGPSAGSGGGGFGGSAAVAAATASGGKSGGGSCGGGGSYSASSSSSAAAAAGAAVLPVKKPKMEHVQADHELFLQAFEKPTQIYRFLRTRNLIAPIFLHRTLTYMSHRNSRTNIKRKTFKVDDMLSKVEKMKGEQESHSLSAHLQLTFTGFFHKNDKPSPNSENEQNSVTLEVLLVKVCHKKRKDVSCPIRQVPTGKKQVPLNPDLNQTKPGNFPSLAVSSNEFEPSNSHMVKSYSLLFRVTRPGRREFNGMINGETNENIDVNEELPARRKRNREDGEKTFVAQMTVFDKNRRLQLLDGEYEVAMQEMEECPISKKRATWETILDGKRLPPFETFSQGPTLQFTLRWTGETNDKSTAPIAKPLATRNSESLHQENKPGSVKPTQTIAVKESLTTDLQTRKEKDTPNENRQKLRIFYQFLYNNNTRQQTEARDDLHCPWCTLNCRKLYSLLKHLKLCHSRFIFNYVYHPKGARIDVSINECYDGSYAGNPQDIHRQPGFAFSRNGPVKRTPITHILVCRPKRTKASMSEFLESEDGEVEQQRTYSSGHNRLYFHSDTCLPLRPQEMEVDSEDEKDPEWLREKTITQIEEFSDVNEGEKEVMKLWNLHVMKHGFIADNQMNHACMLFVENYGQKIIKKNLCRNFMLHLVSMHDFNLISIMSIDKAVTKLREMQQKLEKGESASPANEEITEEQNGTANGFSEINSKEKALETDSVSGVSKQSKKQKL
UniProt O75530: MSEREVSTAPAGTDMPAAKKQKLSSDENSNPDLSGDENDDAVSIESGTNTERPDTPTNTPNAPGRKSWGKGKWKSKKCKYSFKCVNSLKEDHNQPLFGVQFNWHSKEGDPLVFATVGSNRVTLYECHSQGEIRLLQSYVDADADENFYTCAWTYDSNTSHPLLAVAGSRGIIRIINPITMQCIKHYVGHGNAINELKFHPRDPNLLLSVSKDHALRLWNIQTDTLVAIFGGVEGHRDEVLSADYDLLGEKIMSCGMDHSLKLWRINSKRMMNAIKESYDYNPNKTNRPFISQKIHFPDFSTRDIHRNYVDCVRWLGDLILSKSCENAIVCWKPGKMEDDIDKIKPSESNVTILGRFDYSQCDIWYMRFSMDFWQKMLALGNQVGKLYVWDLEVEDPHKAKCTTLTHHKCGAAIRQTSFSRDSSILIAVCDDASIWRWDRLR
UniProt Q09028: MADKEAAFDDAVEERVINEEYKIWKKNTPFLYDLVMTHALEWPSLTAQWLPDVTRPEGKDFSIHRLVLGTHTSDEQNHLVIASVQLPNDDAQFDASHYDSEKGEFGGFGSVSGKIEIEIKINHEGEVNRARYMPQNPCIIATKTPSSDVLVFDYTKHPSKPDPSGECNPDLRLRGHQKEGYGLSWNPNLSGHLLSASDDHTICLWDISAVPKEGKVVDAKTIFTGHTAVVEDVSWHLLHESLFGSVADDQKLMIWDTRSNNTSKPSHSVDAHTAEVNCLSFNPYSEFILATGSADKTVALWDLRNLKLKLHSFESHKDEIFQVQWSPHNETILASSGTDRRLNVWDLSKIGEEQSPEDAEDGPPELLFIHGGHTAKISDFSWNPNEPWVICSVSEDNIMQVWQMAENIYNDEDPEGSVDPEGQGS

T1: recombinant human DEK protein (wild type) (human), P35659
T1 chain: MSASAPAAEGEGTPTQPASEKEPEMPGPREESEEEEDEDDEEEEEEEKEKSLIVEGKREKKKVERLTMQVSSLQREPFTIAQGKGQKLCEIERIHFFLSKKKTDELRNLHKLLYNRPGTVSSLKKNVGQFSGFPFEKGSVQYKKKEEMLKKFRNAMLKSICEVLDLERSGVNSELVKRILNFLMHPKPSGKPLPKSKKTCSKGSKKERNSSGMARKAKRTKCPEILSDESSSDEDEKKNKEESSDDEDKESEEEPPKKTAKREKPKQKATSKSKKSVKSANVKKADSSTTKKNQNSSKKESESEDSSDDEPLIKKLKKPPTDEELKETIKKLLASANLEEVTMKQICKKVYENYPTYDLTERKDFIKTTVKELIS


Columns and labels:
[1] = biological target: His6-tagged PRC2 complex (EZH2, SUZ12, EED, RBBP4) (human) (UniProt Q15910+Q15022+O75530+Q09028); assay: pull-down; DEK (1 µM) mixed with His–PRC2 complex (0.5 µM), Ni-NTA resin, 150 mM NaCl, 0.1% NP-40, 20 mM imidazole, 4 °C, 1 h; SDS–PAGE with Oriole stain; both purified
[2] = biological target: T1, recombinant human DEK protein (wild …); assay: cryo-EM structure; 193-bp 601L nucleosome (1.5 µM) and DEK (3.0 µM), 20 mM Tris-HCl pH 7.5, 122 mM NaCl, 37 °C, 30 min; gradient fixation with paraformaldehyde; both purified; conditions: remark: other sources report otherwise

binding [2] | Molecule | binding [1]
 | recombinant human DEK protein (wild type) (from UniProt P35659 1-375) | no binding (tested: DEK 1 µM, His–PRC2 complex 0.5 µM)
binds | recombinant human DEK protein (wild type), P35659 1-375 (protein) MSASAPAAEGEGTPTQPASEKEPEMPGPREESEEEEDEDDEEEEEEEKEKSLIVEGKREKKKVERLTMQVSSLQREPFTIAQGKGQKLCEIERIHFFLSKKKTDELRNLHKLLYNRPGTVSSLKKNVGQFSGFPFEKGSVQYKKKEEMLKKFRNAMLKSICEVLDLERSGVNSELVKRILNFLMHPKPSGKPLPKSKKTCSKGSKKERNSSGMARKAKRTKCPEILSDESSSDEDEKKNKEESSDDEDKESEEEPPKKTAKREKPKQKATSKSKKSVKSANVKKADSSTTKKNQNSSKKESESEDSSDDEPLIKKLKKPPTDEELKETIKKLLASANLEEVTMKQICKKVYENYPTYDLTERKDFIKTTVKELIS | 
